PubChem BioAssay AID720505, Drosophila RNAi Screening Center, 2013

Screen: 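Knock-downs that reduce calcium influx once internal stores are emptied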 (primary screen)
Cell system: Drosophila S2R+ cells
Reagent: long dsRNA against Drosophila genes
Treatment: thapsigargin (2 µM) in calcium-free buffer to empty internal stores, then 2 mM calcium added back
Measured: 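Fluo-4 signal in 384-well plates read on a FLIPR after thapsigargin (2 µM, calcium-free) store depletion and 2 mM calcium add-back; unnormalised mean endpoint per well; screen run twice, selected wells retested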
Direction: calcium signal and retest calcium signal: higher = more calcium entry after store depletion
Call rule: 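About 1500 genes called as lowering calcium entry, by varying amounts, judged against per-plate control wells with STIM1 as positive and Rho1 as negative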
Meaning of the calls: active = called as lowering calcium entry; inactive = not called
The screen tested about 20,000 reagents; this is an unselected part of those with a known target gene and a result. Of all reagents, about 2,100 (10%) are marked active. 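Raw plate signals without normalisation; calls rest on control-based scores that were not deposited; replicate 2 separates called from uncalled poorly.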 A plus sign joins genes that one reagent is predicted to hit. Not stated in the record: the amount of reagent, the time to read-out.

| predicted target | amplicon | calcium signal, replicate 1 | calcium signal, replicate 2 | retest calcium signal, replicate 1 | retest calcium signal, replicate 2 | Outcome |
| --- | --- | --- | --- | --- | --- | --- |
| CG34304 (retired record) | DRSC12810 | – | – | – | – | inactive |
| Mos | DRSC07258 | 138 | 191 | – | – | inactive |
| CG15155 | DRSC02456 | 109 | 134 | – | – | inactive |
| gNacalpha | DRSC00654 | 164 | 99.7 | – | – | inactive |
| Synd | DRSC15116 | 146 | 171 | – | – | inactive |
| Rab27 | DRSC18567 | 59.6 | 81 | – | – | active |
| dos | DRSC08713 | 54.1 | 117 | – | – | inactive |
| dos | DRSC23285 | 115 | 113 | – | – | inactive |
| List | DRSC06520 | 178 | 110 | – | – | inactive |
| Rpi | DRSC04583 | 102 | 86.3 | – | – | active |
| CG1812 | DRSC20557 | 146 | 144 | – | – | inactive |
| Cyp9f2 | DRSC16635 | 131 | 142 | – | – | inactive |
| Snx17 | DRSC02884 | 116 | 117 | – | – | inactive |
| Phae1 | DRSC02554 | 101 | 97.2 | – | – | inactive |
| nesd | DRSC02099 | 116 | 106 | – | – | inactive |
| ort | DRSC16240 | 230 | 186 | – | – | inactive |
| CR31292 | DRSC13120 | – | – | – | – | inactive |
| Pcmt | DRSC12363 | 37.8 | 111 | – | – | active |
| PGRP-LC | DRSC10416 | 70.1 | 113 | – | – | inactive |
| PGRP-LC | DRSC10417 | 90.6 | 127 | – | – | inactive |
| CG6144 | DRSC02934 | 70.6 | 80.2 | – | – | inactive |
| Hsp110 | DRSC11186 | 95.9 | 111 | – | – | inactive |
| Ir48b | DRSC06320 | 77.8 | 157 | – | – | inactive |
| Snx16 | DRSC06984 | 129 | 142 | – | – | inactive |
| CG4611 | DRSC10434 | 105 | 88.5 | – | – | inactive |
| CG6553 | DRSC07002 | 114 | 178 | – | – | inactive |
| CG11670 | DRSC14342 | 101 | 83.9 | – | – | inactive |
| PPO2 | DRSC07102 | 99 | 111 | – | – | inactive |
| Ero1L | DRSC08660 | 119 | 88.1 | – | – | inactive |
| Or85b | DRSC16765 | 105 | 125 | – | – | inactive |
| acj6 | DRSC20304 | 122 | 117 | – | – | inactive |
| Cndp2 | DRSC04873 | 162 | 201 | – | – | inactive |
| CG16704 | DRSC00475 | 150 | 85.5 | – | – | inactive |
| PGAP5 | DRSC03089 | 147 | 187 | – | – | inactive |
| osy | DRSC14903 | 240 | 106 | – | – | inactive |
| osy | DRSC15979 | 252 | 109 | – | – | inactive |
| osy | DRSC15981 | 111 | 132 | – | – | inactive |
| CheB42b | DRSC22878 | 73.4 | 145 | – | – | inactive |
| flip | DRSC12326 | 99.3 | 197 | – | – | inactive |
| CG14195 | DRSC19550 | 76.1 | 125 | – | – | active |
| Sytalpha | DRSC02869 | 130 | 95.6 | – | – | inactive |
| AIMP3 | DRSC04500 | 188 | 173 | – | – | inactive |
| Elba2 | DRSC00731 | 94.8 | 158 | – | – | inactive |
| Bre1 | DRSC09742 | 62.7 | 120 | – | – | active |
| KP78b + KP78a | DRSC23338 | 72.9 | 122 | – | – | inactive |
| KP78b + KP78a | DRSC23341 | 97 | 136 | – | – | inactive |
| CG11475 | DRSC04113 | 76.4 | 89.1 | – | – | inactive |
| Cyp4p2 | DRSC07373 | 112 | 103 | – | – | inactive |

5 entries already listed, sorted by “calcium signal, replicate 2”, high to low.
| predicted target | amplicon | calcium signal, replicate 1 | calcium signal, replicate 2 | retest calcium signal, replicate 1 | retest calcium signal, replicate 2 | Outcome |
| --- | --- | --- | --- | --- | --- | --- |
| Elba2 | DRSC00731 | 94.8 | 158 | – | – | inactive |
| KP78b + KP78a | DRSC23341 | 97 | 136 | – | – | inactive |
| KP78b + KP78a | DRSC23338 | 72.9 | 122 | – | – | inactive |
| Bre1 | DRSC09742 | 62.7 | 120 | – | – | active |
| CG11475 | DRSC04113 | 76.4 | 89.1 | – | – | inactive |

The results go on:
| predicted target | amplicon | calcium signal, replicate 1 | calcium signal, replicate 2 | retest calcium signal, replicate 1 | retest calcium signal, replicate 2 | Outcome |
| --- | --- | --- | --- | --- | --- | --- |
| CG30056 | DRSC21752 | 172 | 111 | – | – | inactive |
| FAM21 | DRSC06623 | 66.4 | 124 | – | – | active |
| CG4829 | DRSC19920 | 87.3 | 81.6 | – | – | active |
| mtTFB2 | DRSC15519 | 57.1 | 101 | – | – | active |
| blw | DRSC04675 | 81.9 | 136 | – | – | inactive |
| Vsp37A | DRSC18794 | 58.6 | 146 | – | – | active |
| CG6833 | DRSC10721 | 113 | 125 | – | – | inactive |
| CG6409 | DRSC10630 | 87.8 | 111 | 186 | 133 | inactive |
| CG6409 | DRSC22330 | 121 | 209 | – | – | inactive |
| acs | DRSC08185 | 64.7 | 114 | – | – | inactive |
| CG15308 | DRSC17995 | 55.2 | 128 | – | – | active |
| Sod2 | DRSC07554 | 136 | 96.6 | – | – | inactive |
| EcR | DRSC04906 | 119 | 191 | – | – | inactive |
| EcR | DRSC04910 | 149 | 97.7 | – | – | inactive |
| Ald2 | DRSC14730 | 269 | 139 | – | – | inactive |
| Ald2 | DRSC15799 | 293 | 145 | – | – | inactive |
| CG13893 | DRSC08363 | 104 | 95.5 | – | – | inactive |
| Cpr65Az | DRSC09882 | 119 | 104 | – | – | inactive |
| Cpr65Az | DRSC22057 | 94.8 | 190 | – | – | inactive |
| CG3860 | DRSC04425 | 137 | 121 | – | – | inactive |
| CG12491 + CG34105 | DRSC04008 | 80 | 110 | – | – | inactive |
| CG12491 + CG34105 | DRSC04124 | 106 | 168 | – | – | inactive |
| NAT1 | DRSC06854 | 185 | 175 | – | – | inactive |
| Gbeta5 | DRSC17754 | 164 | 141 | – | – | inactive |
| SerRS | DRSC00496 | 139 | 163 | – | – | inactive |
| upd1 | DRSC20358 | 76.2 | 106 | – | – | inactive |
| CG14883 | DRSC15007 | 89.3 | 148 | – | – | inactive |
| CrebA | DRSC11122 | 117 | 72.7 | – | – | inactive |
| Nacalpha | DRSC07477 | 146 | 91.2 | – | – | inactive |
| Rdl | DRSC11264 | 99.1 | 113 | – | – | inactive |
| Osi5 | DRSC12276 | 77.9 | 129 | – | – | active |
| CG13711 | DRSC08320 | 110 | 78 | – | – | inactive |
| ect | DRSC10675 | 94.3 | 96.4 | 7433 | 93.1 | inactive |
| ect | DRSC11343 | 110 | 109 | – | – | inactive |
| ect | DRSC22357 | 98.6 | 230 | – | – | inactive |
